Results published in article PMC11111093.
Results are given in words; binding and its absence hold for the method and conditions named. In cells and extracts the contact can be indirect. Some binding calls cover weakened binding; strength is not graded here. One block for each binder: values may come before it.

Key:
[1] = biological target: T1, ADAP (adhesion and degranulation-promoting adapter protein), endogenous in iBMMs (mouse (endogenous in iBMMs)) (UniProt O35601); experiment: co-IP; iBMMs unstimulated or IFN-β 50 ng/ml 24 h; lysate on a discontinuous sucrose gradient (5%, 30%, 40%); fractions 5-7, 9-10 and 11-12 immunoprecipitated with anti-ADAP, blots for RIG-I and MDA5; result for RIG-I in combined fractions F11-12
T1 sequence: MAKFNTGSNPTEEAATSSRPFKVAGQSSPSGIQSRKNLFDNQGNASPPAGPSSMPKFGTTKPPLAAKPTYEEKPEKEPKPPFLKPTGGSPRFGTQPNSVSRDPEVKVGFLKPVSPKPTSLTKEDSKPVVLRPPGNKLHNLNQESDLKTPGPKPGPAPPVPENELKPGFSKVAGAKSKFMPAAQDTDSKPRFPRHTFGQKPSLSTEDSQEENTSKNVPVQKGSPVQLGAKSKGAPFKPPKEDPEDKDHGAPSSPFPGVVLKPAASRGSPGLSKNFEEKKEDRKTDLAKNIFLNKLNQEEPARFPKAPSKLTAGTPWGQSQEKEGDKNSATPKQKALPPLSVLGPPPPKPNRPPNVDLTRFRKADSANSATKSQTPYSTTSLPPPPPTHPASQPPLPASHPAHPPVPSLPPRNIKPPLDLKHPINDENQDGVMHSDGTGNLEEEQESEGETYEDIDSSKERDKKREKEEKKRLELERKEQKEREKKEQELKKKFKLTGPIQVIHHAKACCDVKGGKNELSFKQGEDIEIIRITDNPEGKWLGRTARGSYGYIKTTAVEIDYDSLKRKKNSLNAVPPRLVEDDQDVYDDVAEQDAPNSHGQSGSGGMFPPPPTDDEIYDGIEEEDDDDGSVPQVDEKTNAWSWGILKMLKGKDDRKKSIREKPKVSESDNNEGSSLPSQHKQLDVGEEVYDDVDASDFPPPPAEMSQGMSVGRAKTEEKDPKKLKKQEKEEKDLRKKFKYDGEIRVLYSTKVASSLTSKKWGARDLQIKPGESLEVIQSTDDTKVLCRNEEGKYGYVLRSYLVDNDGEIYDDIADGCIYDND

[2] = biological target: T1, ADAP (adhesion and degranulation-promoting adapter protein), endogenous in iBMMs (mouse (endogenous in iBMMs)); experiment: co-IP; anti-ADAP immunoprecipitation from whole-cell lysates of iBMMs, mock, LPS 1 μg/ml (0, 12, 24 h) or SeV (0, 5, 10 h); lysis in 1% Triton X-100, 20 mM Tris-HCl pH 8.3, 150 mM NaCl; protein G Sepharose, 4°C; blots for RIG-I and MDA5
[3] = biological target: T1, ADAP (adhesion and degranulation-promoting adapter protein), endogenous in iBMMs (mouse (endogenous in iBMMs)); experiment: condition: only in sucrose-gradient fractions F9-10; co-IP; as a3, combined sucrose-gradient fractions F9-10 of iBMMs (resting and IFN-β), anti-ADAP immunoprecipitation, anti-RIG-I blot

binding [1]: binds
binding [2]: binds
binding [3]: no binding
B1: RIG-I (retinoic acid-inducible gene I), endogenous in iBMMs (protein, UniProt Q6Q899 1-926)
chain: MTAEQRQNLQAFRDYIKKILDPTYILSYMSSWLEDEEVQYIQAEKNNKGPMEAASLFLQYLLKLQSEGWFQAFLDALYHAGYCGLCEAIESWDFQKIEKLEEHRLLLRRLEPEFKATVDPNDILSELSECLINQECEEIRQIRDTKGRMAGAEKMAECLIRSDKENWPKVLQLALEKDNSKFSELWIVDKGFKRAESKADEDDGAEASSIQIFIQEEPECQNLSQNPGPPSEASSNNLHSPLKPRNYQLELALPAKKGKNTIICAPTGCGKTFVSLLICEHHLKKFPCGQKGKVVFFANQIPVYEQQATVFSRYFERLGYNIASISGATSDSVSVQHIIEDNDIIILTPQILVNNLNNGAIPSLSVFTLMIFDECHNTSKNHPYNQIMFRYLDHKLGESRDPLPQVVGLTASVGVGDAKTAEEAMQHICKLCAALDASVIATVRDNVAELEQVVYKPQKISRKVASRTSNTFKCIISQLMKETEKLAKDVSEELGKLFQIQNREFGTQKYEQWIVGVHKACSVFQMADKEEESRVCKALFLYTSHLRKYNDALIISEDAQMTDALNYLKAFFHDVREAAFDETERELTRRFEEKLEELEKVSRDPSNENPKLRDLYLVLQEEYHLKPETKTILFVKTRALVDALKKWIEENPALSFLKPGILTGRGRTNRATGMTLPAQKCVLEAFRASGDNNILIATSVADEGIDIAECNLVILYEYVGNVIKMIQTRGRGRARDSKCFLLTSSADVIEKEKANMIKEKIMNESILRLQTWDEMKFGKTVHRIQVNEKLLRDSQHKPQPVPDKENKKLLCGKCKNFACYTADIRVVETSHYTVLGDAFKERFVCKPHPKPKIYDNFEKKAKIFCAKQNCSHDWGIFVRYKTFEIPVIKIESFVVEDIVSGVQNRHSKWKDFHFERIQFDPAEMSV

binding [1]: no binding
binding [2]: no binding
B2: MDA5, endogenous in iBMMs (protein, UniProt Q8R5F7 1-1025)
chain: MSIVCSAEDSFRNLILFFRPRLKMYIQVEPVLDHLIFLSAETKEQILKKINTCGNTSAAELLLSTLEQGQWPLGWTQMFVEALEHSGNPLAARYVKPTLTDLPSPSSETAHDECLHLLTLLQPTLVDKLLINDVLDTCFEKGLLTVEDRNRISAAGNSGNESGVRELLRRIVQKENWFSTFLDVLRQTGNDALFQELTGGGCPEDNTDLANSSHRDGPAANECLLPAVDESSLETEAWNVDDILPEASCTDSSVTTESDTSLAEGSVSCFDESLGHNSNMGRDSGTMGSDSDESVIQTKRVSPEPELQLRPYQMEVAQPALDGKNIIICLPTGSGKTRVAVYITKDHLDKKKQASESGKVIVLVNKVMLAEQLFRKEFNPYLKKWYRIIGLSGDTQLKISFPEVVKSYDVIISTAQILENSLLNLESGDDDGVQLSDFSLIIIDECHHTNKEAVYNNIMRRYLKQKLRNNDLKKQNKPAIPLPQILGLTASPGVGAAKKQSEAEKHILNICANLDAFTIKTVKENLGQLKHQIKEPCKKFVIADDTRENPFKEKLLEIMASIQTYCQKSPMSDFGTQHYEQWAIQMEKKAAKDGNRKDRVCAEHLRKYNEALQINDTIRMIDAYSHLETFYTDEKEKKFAVLNDSDKSDDEASSCNDQLKGDVKKSLKLDETDEFLMNLFFDNKKMLKKLAENPKYENEKLIKLRNTILEQFTRSEESSRGIIFTKTRQSTYALSQWIMENAKFAEVGVKAHHLIGAGHSSEVKPMTQTEQKEVISKFRTGEINLLIATTVAEEGLDIKECNIVIRYGLVTNEIAMVQARGRARADESTYVLVTSSGSGVTEREIVNDFREKMMYKAINRVQNMKPEEYAHKILELQVQSILEKKMKVKRSIAKQYNDNPSLITLLCKNCSMLVCSGENIHVIEKMHHVNMTPEFKGLYIVRENKALQKKFADYQTNGEIICKCGQAWGTMMVHKGLDLPCLKIRNFVVNFKNNSPKKQYKKWVELPIRFPDLDYSEYCLYSDED
